We go through one compound from publication PMC6009876, “Introduction of pyrrolidineoxy or piperidineamino group at the 4-position of quinazoline leading to novel quinazoline-based phosphoinositide 3-kinase delta (PI3Kδ) inhibitors” (Journal of Enzyme Inhibition and Medicinal Chemistry, 2018).

Broadly, the IC50 is the concentration at which inhibition is half-maximal.

Test [1] has as its system Ramos. Put plainly: Anti-proliferative activity, MTT reduction method. To be noted: Homo sapiens, mean of at least two experiments. Type of test: cell-based. In general terms: Tetrazolium dyes change colour on reduction, which living cells bring about.
Test [2] relates to Raji. Kind of test: Anti-proliferative activity, MTT reduction method. Type of test: cell-based. As to conditions: Homo sapiens, mean of at least two experiments.

Consider `O=C(CCCCCCC(=O)Nc1ccccc1)NO` [SAHA, vorinostat, reference compound], for which the IC50 in test [1] came to 520 nM; in test [2] it was 970 nM.
